Measured values: article PMC11500381
Results are given in words; binding and its absence hold for the method and conditions named. Binding seen in cells or lysates may run through a third protein. Some entries that bind do so weakly or less than the wild type. Values belong to the substance of their own block, whether it stands above or below them.

Protein sequences, listed by entry. Tags and fused reporters are not part of them.
UniProt Q96SW2: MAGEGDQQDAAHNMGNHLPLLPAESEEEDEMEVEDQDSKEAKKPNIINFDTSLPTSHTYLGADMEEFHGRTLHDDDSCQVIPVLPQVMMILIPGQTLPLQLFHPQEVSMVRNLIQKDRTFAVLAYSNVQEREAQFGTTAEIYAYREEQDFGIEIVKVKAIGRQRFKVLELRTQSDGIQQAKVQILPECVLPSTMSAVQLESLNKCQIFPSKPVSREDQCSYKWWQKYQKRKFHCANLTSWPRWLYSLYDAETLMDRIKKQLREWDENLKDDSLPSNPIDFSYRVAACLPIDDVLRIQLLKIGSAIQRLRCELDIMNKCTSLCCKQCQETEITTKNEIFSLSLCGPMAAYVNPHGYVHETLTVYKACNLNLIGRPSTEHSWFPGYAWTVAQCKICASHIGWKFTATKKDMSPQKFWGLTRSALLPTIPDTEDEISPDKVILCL
UniProt Q8C7D2: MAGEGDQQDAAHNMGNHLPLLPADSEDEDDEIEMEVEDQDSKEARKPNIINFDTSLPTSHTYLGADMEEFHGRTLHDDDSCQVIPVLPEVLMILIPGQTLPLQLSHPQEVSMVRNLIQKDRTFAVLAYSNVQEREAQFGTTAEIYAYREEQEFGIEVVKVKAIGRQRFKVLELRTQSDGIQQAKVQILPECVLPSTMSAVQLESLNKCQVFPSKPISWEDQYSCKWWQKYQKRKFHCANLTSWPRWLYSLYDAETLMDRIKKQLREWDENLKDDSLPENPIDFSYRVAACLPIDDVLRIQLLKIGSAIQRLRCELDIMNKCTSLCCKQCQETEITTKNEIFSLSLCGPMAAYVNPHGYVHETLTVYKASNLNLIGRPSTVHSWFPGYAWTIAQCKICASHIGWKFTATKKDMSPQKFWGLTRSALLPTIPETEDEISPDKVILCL
UniProt P25685: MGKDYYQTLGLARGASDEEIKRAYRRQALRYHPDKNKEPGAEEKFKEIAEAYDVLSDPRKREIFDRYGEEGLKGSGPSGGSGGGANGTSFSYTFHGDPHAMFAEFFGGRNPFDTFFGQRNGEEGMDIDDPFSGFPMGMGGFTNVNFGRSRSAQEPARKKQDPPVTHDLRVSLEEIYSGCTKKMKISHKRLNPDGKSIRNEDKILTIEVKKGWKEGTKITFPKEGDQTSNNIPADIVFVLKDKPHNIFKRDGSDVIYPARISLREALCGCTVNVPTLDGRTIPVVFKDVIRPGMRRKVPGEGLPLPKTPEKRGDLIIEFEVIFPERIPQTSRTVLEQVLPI
UniProt O75190: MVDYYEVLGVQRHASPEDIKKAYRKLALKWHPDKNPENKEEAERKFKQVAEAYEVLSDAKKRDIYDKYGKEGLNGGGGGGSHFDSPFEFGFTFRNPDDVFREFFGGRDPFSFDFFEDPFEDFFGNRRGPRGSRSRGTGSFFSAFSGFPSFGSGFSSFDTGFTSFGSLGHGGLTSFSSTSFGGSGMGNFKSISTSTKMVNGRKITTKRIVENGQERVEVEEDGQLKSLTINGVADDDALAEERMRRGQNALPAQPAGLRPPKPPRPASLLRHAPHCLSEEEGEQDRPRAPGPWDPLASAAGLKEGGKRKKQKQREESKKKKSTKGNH
UniProt Q9QYJ3: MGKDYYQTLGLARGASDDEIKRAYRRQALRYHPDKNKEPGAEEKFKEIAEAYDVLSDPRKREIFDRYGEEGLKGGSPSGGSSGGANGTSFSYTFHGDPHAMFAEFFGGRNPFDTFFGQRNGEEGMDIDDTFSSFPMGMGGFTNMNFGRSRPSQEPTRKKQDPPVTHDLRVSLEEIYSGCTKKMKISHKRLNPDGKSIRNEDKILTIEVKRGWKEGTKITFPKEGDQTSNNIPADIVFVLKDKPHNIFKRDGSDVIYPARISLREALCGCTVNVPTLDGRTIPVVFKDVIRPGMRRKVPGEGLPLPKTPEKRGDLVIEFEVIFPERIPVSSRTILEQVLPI

Columns and labels:
[1] = biological target: CRBN (construct not shown; SH-SY5Y cells) (UniProt Q96SW2); assay: co-IP; called 'CRBN pull-down assay'; SH-SY5Y cells with DJ6 knocked down (Supplementary Fig. 2c)
[2] = biological target: CRBN (construct not shown; SH-SY5Y cells) (UniProt Q96SW2); assay: co-IP; CRBN with DJ6 in the presence of Ac-LLRH-NH2 or scrambled Ac-RHLL-NH2; CoIP and western blot (Supplementary Fig. 8a)
[3] = biological target: CRBN (construct not shown; SH-SY5Y cells) (UniProt Q96SW2); assay: co-IP; CRBN with DJ6 (Supplementary Fig. 2a); constructs and antibodies not shown
FLAG-CRBN = FLAG-CRBN (UniProt Q96SW2); assay: co-IP; SH-SY5Y cells co-transfected with Myc-DJ1 and FLAG-CRBN; lysate incubated with scrambled peptide or Ac-DGRT-NH2; CoIP with α-FLAG antibody
HA-CRBN (Cereblon) = HA-CRBN (Cereblon) (UniProt Q8C7D2); assay: co-IP; SH-SY5Y cells transiently co-transfected with HA-CRBN and Myc-DJ1; lysate immunoprecipitated with IgG control or α-HA antibody; protein G Sepharose; n = 5
[4] = biological target: endogenous CRBN of mouse brain (mouse (endogenous in C57BL/6 brain)) (UniProt Q8C7D2); assay: co-IP; whole-brain lysates of C57BL/6 mice; endogenous CRBN pulled down with α-CRBN antibody; immunoblot

binding [1]: binds
Substance: DJ1 (DNAJB1; construct not shown; SH-SY5Y cells) (from UniProt P25685 1-340)

binding [2]: binds
binding [3]: binds
Substance: DJ6 (DNAJB6; construct not shown) (from UniProt O75190 1-326)

binding (FLAG-CRBN): binds
binding (HA-CRBN (Cereblon)): binds
Substance: Myc-DJ1 (DNAJB1) (from UniProt P25685 1-340)

binding [4]: binds
Substance: endogenous DJ1 (DNAJB1) of mouse brain (from UniProt Q9QYJ3 1-340)
